Source: patent US20210277146A1 (BEIJING DONGFANG BIOTECH, published 2021)
These are yes or no findings as the source states them, for the method shown. Some results given as binding are weak or reduced against the parent protein; the word gives no strength.

Sequences of proteins named here, by UniProt entry; tags and fusion partners are left off. Residues count along the entry.
UniProt Q8NBP7, residues 31-692: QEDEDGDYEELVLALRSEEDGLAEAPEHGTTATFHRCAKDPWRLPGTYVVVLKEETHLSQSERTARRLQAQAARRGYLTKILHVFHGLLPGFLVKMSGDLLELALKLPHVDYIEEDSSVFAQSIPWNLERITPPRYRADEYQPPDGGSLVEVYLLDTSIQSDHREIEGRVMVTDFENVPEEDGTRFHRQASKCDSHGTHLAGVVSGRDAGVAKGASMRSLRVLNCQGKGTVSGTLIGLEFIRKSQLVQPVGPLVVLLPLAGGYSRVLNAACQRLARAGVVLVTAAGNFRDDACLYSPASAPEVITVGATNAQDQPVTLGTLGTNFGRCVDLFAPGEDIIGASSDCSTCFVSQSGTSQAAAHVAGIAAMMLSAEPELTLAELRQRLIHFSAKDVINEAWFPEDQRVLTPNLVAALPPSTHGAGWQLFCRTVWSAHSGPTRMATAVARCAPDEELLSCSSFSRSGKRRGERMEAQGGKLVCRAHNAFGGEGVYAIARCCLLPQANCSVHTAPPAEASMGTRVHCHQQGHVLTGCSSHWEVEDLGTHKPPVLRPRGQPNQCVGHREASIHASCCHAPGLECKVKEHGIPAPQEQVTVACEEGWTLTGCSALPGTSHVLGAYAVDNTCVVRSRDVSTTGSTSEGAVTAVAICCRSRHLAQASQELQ

Columns and labels:
[1] = target: T1, PCSK9-His (UniProt Q8NBP7 31-692); assay: ELISA, PCSK9-His coated, complete antibody titrated, anti-human IgG-HRP
T1 construct: also called antigen PCSK9-His; Proprotein Convertase Subtilisin/Kexin Type 9; not shown: His tag
Experimental: Coating PCSK9-His (300 ng/well/100 μl) by 0.01M PBS buffer at pH 7.2 overnight at 4° C., washing three times with PBST (1‰ Tween 20) of 300 μl/well, further adding PBST-4% milk, and blocking for one hour at 37° C.; adding complete antibodies DFSK9-1, DFSK9-12, DFSK9-13, DFSK9-14, DFSK9-15, DFSK9-16, DFSK9-17, DFSK9-18, DFSK9-19, DFSK9-20 and DFSK9-21 of different dilution degrees; the highest concentration of the 11 complete antibodies is 50 μg/ml, diluting at a five-time gradient, diluting for eight gradients for each complete antibody, and incubating for one hour at 37° C.; washing 5 times with PBST of 300 μl/well, further adding a goat-anti-human IgG-HRP secondary antibody diluted by PBST-4% milk at a ratio of 1:5000, and incubating for one hour at 37° C.; washing 5 times with PBST of 300 μl/well, developing by using a Tetramethylbenzidine (TMB) developing kit (100 μl/well), developing for 10 minutes at a room temperature, and terminating developing with 2M H₂SO₄ (50 μl/well); reading numbers by using a microplate reader at wavelengths of 450 nm and 630 nm; analyzing data and drawing pictures by using software GraphPad Prism 5Demo, and results are shown in FIG. 8 and table 2.

[2] = target: PCSK9 (UniProt Q8NBP7 31-692, limits assumed); assay: SPR BIAcore X100, antibody captured by goat anti-human IgG on CM5, PCSK9 as analyte

Row | binding [1] | binding [2] | Binder
1 | binds | binds | DFSK9-12 complete antibody (antibody, V domains shown) VH: QVQLVQSGAEVKKPGASVKVSCKASGYTVTSYGISWVRQAPGQGLEWMGWLSFYNGNTNYAQKLQGRGTMTTDPSTSTAYMELRSLRSDDTAVYYCARGYSLDVWGQGTTVTVSS VL: DIQMTQSPSSLSASVGDRVTITCRASQSVRNWLDWYQQKPGKAPKLLIYGASTLESGVPSRFSGSGSGTDFTLTISSLQPEDFATYYCQQDNDIPLTFGQGTKVEIK
2 | binds | binds | DFSK9-13 complete antibody (antibody, V domains shown) VH: QVQLVQSGAEVKKPGASVKVSCKASGYSLTSYGISWVRQAPGQGLEWMGWVSFYQGNTNYAQKLQGRGTMTTDPSTSTAYMELRSLRSDDTAVYYCARGYGMTVWGQGTTVTVSS VL: DIQMTQSPSSLSASVGDRVTITCRASQDVDSWLTWYQQKPGKAPKLLIYGASNLASGVPSRFSGSGSGTDFTLTISSLQPEDFATYYCQQDSKIPLTFGQGTKVEIK
3 | binds | binds | DFSK9-17 complete antibody (antibody, V domains shown) VH: QVQLVQSGAEVKKPGASVKVSCKASGYTVTSYGISWVRQAPGQGLEWMGWVSFYNGNSNYAQKLQGRGTMTTDPSTSTAYMELRSLRSDDTAVYYCARGYSLDVWGQGTTVTVSS VL: DIQMTQSPSSLSASVGDRVTITCRASQNINNWLNWYQQKPGKAPKLLIYGASTRPTGVPSRFSGSGSGTDFTLTISSLQPEDFATYYCQQWDDTPNTFGQGTKVEIK
4 | binds | binds | DFSK9-1 complete antibody (antibody, V domains shown) VH: QVQLVQSGAEVKRPGASVKVSCKASGGTFTNNAISWVRQAPGQGLEWMGRIIPMFGMANYAQKLQGRGTMTTDPSTSTAYMELRSLRSDDTAVYYCAREGIPMIWGQGTTVTVSS VL: DIQMTQSPSSLSASVGDRVTITCRASQSIDNRLTWYQQKPGKAPKLLIYDASSRQSGVPSRFSGSGSGTDFTLTISSLQPEDFATYYCQQPENDPTTFGQGTKVEIK
